The supplement of paper PMC10849652
This is one part of the list.

By UniProt entry, the sequences of proteins in these tests, tags left out. Where a name states a change or a piece, a line headed by the entry shows the natural chain unless it says otherwise.
UniProt P52848: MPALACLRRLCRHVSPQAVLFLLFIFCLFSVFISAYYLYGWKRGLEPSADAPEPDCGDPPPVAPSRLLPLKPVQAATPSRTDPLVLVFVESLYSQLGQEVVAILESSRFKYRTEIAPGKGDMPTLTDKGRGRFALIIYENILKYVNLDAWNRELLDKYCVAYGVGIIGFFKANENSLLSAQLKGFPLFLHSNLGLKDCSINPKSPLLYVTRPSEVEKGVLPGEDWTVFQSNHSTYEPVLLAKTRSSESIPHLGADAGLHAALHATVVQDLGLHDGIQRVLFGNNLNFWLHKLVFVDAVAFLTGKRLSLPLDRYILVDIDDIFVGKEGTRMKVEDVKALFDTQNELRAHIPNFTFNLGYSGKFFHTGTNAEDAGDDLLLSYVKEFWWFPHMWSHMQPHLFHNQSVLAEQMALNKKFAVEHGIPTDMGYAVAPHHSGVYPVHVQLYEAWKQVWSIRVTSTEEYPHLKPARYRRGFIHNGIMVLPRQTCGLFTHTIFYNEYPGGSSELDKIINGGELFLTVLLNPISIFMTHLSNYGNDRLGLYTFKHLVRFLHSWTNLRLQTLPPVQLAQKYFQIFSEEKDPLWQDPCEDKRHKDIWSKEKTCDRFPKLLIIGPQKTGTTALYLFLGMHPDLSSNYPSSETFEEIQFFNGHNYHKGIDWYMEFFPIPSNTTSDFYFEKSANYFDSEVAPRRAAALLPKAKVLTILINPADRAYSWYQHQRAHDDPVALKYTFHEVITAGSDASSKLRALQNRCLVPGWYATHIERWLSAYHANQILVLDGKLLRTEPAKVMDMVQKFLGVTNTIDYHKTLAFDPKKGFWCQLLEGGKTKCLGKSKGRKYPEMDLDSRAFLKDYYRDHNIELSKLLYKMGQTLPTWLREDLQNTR
UniProt Q9BQ15: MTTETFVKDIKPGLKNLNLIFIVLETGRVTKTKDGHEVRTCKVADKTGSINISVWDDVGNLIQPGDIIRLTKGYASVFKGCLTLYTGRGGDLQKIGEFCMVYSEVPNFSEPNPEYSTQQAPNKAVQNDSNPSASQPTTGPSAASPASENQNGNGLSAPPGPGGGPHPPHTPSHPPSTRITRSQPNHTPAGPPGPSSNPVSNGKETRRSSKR
UniProt Q13772: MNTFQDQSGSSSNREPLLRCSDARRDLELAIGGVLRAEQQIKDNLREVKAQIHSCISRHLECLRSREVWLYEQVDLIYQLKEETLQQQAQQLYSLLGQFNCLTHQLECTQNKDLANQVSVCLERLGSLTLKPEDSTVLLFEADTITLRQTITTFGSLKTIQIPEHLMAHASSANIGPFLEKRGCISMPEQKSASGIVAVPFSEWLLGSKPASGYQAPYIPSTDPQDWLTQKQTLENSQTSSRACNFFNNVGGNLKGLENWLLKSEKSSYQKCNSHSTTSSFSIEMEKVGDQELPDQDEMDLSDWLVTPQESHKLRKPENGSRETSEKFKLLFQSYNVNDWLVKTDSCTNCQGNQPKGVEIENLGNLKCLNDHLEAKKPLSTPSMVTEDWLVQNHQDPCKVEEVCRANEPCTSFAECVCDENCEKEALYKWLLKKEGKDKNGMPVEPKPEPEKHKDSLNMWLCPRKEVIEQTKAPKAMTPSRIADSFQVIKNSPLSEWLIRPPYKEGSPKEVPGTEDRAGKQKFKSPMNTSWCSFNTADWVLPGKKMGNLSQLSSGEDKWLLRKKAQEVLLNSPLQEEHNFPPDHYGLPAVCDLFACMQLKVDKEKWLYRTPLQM
UniProt Q8N6N6: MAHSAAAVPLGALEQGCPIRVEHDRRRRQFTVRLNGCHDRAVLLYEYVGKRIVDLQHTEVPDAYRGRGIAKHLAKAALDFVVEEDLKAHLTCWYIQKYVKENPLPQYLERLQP
UniProt B2RBV5: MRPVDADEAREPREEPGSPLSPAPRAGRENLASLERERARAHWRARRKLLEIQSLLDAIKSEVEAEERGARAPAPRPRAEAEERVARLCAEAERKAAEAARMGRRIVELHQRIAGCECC
UniProt Q5VVJ2: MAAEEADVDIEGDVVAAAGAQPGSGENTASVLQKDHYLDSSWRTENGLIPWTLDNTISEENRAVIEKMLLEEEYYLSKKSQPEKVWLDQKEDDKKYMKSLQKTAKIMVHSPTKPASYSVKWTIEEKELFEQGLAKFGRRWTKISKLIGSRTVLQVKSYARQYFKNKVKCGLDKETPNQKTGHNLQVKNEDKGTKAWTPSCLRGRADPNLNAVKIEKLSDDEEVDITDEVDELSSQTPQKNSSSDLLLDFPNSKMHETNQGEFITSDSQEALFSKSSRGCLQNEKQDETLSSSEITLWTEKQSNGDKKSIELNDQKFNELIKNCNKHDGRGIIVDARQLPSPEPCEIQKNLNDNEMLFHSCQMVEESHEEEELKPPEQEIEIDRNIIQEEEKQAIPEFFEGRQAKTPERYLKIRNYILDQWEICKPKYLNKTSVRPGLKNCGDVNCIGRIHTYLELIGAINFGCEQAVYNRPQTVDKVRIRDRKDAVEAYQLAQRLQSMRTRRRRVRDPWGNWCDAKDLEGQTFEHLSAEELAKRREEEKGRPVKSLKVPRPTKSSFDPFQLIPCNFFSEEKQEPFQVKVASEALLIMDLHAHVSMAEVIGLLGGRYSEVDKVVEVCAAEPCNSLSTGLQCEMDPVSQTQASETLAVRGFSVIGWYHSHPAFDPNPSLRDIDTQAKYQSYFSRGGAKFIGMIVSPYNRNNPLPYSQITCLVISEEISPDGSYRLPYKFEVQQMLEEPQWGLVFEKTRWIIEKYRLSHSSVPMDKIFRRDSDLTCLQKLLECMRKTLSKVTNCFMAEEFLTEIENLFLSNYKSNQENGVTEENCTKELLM
UniProt Q9NZM1: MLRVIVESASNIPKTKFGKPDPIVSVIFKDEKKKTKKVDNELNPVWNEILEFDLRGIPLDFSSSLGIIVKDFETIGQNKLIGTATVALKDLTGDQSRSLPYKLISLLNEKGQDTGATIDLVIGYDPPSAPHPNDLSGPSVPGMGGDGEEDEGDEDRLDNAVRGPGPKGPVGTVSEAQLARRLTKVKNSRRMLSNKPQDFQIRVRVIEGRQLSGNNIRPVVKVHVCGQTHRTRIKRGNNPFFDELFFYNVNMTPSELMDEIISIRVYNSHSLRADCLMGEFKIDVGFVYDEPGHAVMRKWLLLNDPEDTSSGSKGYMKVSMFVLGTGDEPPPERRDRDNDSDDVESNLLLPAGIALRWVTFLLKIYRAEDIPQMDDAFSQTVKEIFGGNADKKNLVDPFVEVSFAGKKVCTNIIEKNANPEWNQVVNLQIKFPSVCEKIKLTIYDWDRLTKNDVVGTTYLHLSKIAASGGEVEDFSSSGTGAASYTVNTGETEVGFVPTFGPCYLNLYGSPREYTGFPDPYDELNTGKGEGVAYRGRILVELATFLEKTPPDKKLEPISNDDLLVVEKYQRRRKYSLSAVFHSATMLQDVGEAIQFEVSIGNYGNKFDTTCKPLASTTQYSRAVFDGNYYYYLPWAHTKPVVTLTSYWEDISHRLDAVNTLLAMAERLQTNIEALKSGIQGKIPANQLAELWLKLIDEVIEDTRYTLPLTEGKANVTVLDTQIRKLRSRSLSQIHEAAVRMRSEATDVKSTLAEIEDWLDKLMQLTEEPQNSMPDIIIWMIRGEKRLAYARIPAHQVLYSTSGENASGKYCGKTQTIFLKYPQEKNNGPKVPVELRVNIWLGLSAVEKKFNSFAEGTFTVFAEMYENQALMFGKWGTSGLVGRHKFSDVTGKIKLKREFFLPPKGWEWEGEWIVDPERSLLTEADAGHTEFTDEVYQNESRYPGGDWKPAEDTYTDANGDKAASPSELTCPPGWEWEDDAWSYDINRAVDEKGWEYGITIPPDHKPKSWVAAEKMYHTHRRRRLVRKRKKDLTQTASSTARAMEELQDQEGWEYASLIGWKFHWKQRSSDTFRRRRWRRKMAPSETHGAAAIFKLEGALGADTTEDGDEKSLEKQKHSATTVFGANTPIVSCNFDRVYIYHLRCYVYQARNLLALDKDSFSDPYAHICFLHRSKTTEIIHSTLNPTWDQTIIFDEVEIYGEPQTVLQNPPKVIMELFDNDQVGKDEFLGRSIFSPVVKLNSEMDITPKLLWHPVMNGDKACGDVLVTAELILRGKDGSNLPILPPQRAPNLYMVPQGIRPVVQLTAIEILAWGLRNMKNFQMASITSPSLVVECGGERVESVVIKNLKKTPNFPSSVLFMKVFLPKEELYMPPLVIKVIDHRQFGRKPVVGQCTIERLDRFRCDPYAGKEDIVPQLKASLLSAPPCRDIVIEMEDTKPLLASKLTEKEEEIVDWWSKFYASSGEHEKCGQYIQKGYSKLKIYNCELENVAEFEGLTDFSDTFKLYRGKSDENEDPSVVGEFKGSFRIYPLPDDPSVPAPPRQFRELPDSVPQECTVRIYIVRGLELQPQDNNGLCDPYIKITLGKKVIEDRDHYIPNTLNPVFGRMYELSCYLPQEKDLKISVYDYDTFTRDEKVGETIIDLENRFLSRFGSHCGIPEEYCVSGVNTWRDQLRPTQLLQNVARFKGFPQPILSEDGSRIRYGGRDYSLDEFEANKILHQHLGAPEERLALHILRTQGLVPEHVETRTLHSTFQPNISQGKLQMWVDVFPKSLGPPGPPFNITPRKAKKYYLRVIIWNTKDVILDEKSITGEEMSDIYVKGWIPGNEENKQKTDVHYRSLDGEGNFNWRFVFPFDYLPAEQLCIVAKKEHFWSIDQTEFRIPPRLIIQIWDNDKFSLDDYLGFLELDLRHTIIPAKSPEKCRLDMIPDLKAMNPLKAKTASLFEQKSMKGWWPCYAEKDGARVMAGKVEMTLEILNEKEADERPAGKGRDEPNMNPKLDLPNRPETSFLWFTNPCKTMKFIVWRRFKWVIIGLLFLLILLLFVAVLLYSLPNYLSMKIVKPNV
UniProt Q8TBE9: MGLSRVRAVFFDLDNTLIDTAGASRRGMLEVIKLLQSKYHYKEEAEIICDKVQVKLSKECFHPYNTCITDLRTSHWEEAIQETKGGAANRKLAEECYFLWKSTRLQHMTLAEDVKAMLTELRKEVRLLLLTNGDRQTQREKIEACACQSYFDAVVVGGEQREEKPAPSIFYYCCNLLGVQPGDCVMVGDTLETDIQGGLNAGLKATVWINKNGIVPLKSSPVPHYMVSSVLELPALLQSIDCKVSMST
UniProt O75438, whole entry, looked up: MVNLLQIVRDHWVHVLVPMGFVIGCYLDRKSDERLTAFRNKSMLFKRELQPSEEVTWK

Assays:
Experiment in all cases: log2 fold change, soluble protein after heating vs DMSO (PISA); higher = thermal stabilisation; K562 cells, 10 uM, 30 min; active = over 0.2 and 3.5 SD of the protein, either way, in both replicates (recomputed)
[1] = compound: CC1=C(C=C(C=C1)NC(=O)C2=CC(=CC=C2)C(C)(C)C#N)NC3=CC4=C(C=C3)N=CN(C4=O)C
In short: (§1)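 Soluble protein was defined as the supernatant after 21,000xg for 90 min. It came from K562 cells at 2×10^6 cells/mL given 10 μM compound for 30 min, heated in aliquots for 3 min across 48°C-58°C, pooled, and extracted in PBS with 0.5% NP-40 at 4°C, and was quantified by TMTpro 16plex LC-MS/MS with equalised channel sums. Thermal stability against control samples, from duplicates, is reported as log2 fold change.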

[2] = compound: CC1=CC=C(C=C1)SC2=C3C=C(SC3=CN=C2)C(=O)N
In short: as §1

[3] = compound: CC1=NC(=CC=C1)C2=C(N=C(N2)C(C)(C)C)C3=CC4=NC=CN=C4C=C3
In short: as §1

Nexturastat A = compound: CCCCN(Cc1ccc(C(=O)NO)cc1)C(=O)Nc1ccccc1 [Nexturastat A]
In short: as §1

vemurafenib = compound: CCCS(=O)(=O)Nc1ccc(F)c(C(=O)c2c[nH]c3ncc(-c4ccc(Cl)cc4)cc23)c1F [vemurafenib]
In short: as §1

[4] = compound: CCCS(=O)(=O)Nc1ccc(F)c(C(=O)c2c[nH]c3ncc(Cl)cc23)c1F
In short: as §1

[5] = compound: CCCc1cc(C)[nH]c(=O)c1CNC(=O)c1cc(-c2ccnc(N3CCN(C)CC3)c2)cc2c1cnn2C(C)C
In short: as §1

givinostat = compound: CCN(CC)Cc1ccc2cc(COC(=O)Nc3ccc(C(=O)NO)cc3)ccc2c1 [givinostat]
In short: as §1

barasertib = compound: CCN(CCCOc1ccc2c(Nc3cc(CC(=O)Nc4cccc(F)c4)[nH]n3)ncnc2c1)CCOP(=O)(O)O [barasertib]
In short: as §1

[6] = compound: CC[C@@H]1C(=O)N(C)c2cnc(Nc3ccc(C(=O)NC4CCN(C)CC4)cc3OC)nc2N1C1CCCC1
In short: as §1

volasertib = compound: CC[C@@H]1C(=O)N(C)c2cnc(Nc3ccc(C(=O)N[C@H]4CC[C@H](N5CCN(CC6CC6)CC5)CC4)cc3OC)nc2N1C(C)C [volasertib]
In short: as §1

[7] = compound: CC[C@H](C)N1C=C(C2=C(C=C(C=C21)C3=CN=C(C=C3)N4CCNCC4)C(=O)NCC5=C(C=C(NC5=O)C)C)C
In short: as §1

epoxomicin = compound: CC[C@H](C)[C@@H](C(=O)N[C@@H]([C@@H](C)O)C(=O)N[C@@H](CC(C)C)C(=O)[C@]1(CO1)C)NC(=O)[C@H]([C@@H](C)CC)N(C)C(=O)C [epoxomicin]
In short: as §1

[8] = compound: CCn1c(C(=O)N(C2CC2)C2CC2)cc2c3c(ncn3C)c(Nc3cc(C)n(C)n3)nc21
In short: as §1

[9] = compound: CCn1cc(-c2ccnc3[nH]c(-c4cccc(CN(C)C)c4)cc23)c(-c2ccc(NC(=O)N(C)C)cc2)n1
In short: as §1

[10] = compound: CN(C)CC(=O)Nc1ccc2[nH]c(=O)c3ccccc3c2c1
In short: as §1

rosiglitazone = compound: CN(CCOC1=CC=C(C=C1)C[C@H]2C(=O)NC(=O)S2)C3=CC=CC=N3 (racemic) [rosiglitazone]
In short: as §1

[11] = compound: CN1C2=C(C3=C1C(=O)N(N=C3)CC4=CC(=CC=C4)N)SC(=C2)S(=O)C
In short: as §1

[12] = compound: CN1CCC(CNc2ccc3ncc(-c4cccc(OC(F)(F)F)c4)n3n2)CC1
In short: as §1

[13] = compound: CC1=C(C=C(C=C1)NC(=O)C2=CC(=CC=C2)N(C)C)NC(=O)C3=CC=C(C=C3)O
In short: as §1

## NDST1 (UniProt P52848)
[1]
  log2 fold change: inactive: 0.048
[2]
  log2 fold change: inactive: -0.048
[3]
  log2 fold change: inactive: 0.001
Nexturastat A
  log2 fold change: inactive: 0.005
vemurafenib
  log2 fold change: inactive: -0.101
[4]
  log2 fold change: inactive: 0.012
[5]
  log2 fold change: inactive: 0.091
givinostat
  log2 fold change: inactive: 0.046
barasertib
  log2 fold change: inactive: -0.091
[6]
  log2 fold change: inactive: -0.015
volasertib
  log2 fold change: inactive: -0.031
[7]
  log2 fold change: inactive: 0.076
epoxomicin
  log2 fold change: inactive: -0.052
[8]
  log2 fold change: inactive: -0.023
[9]
  log2 fold change: inactive: 0.053
[10]
  log2 fold change: inactive: 0.001
rosiglitazone
  log2 fold change: inactive: 0.059
[11]
  log2 fold change: inactive: 0.013
[12]
  log2 fold change: inactive: 0.009

## NDRG2 (UniProt G3V392)
[1]
  log2 fold change: inactive: -0.04
[2]
  log2 fold change: inactive: 0.183
[3]
  log2 fold change: inactive: -0.216
Nexturastat A
  log2 fold change: inactive: -0.114
[4]
  log2 fold change: inactive: -0.248
[5]
  log2 fold change: inactive: 0.02
barasertib
  log2 fold change: inactive: 0.134
volasertib
  log2 fold change: inactive: -0.105
epoxomicin
  log2 fold change: inactive: 0.042
rosiglitazone
  log2 fold change: inactive: 0.016

## NABP2 (UniProt Q9BQ15)
[11]
  log2 fold change: inactive: -0.218

## NCOA4 isoform 4 (UniProt Q13772)
[13]
  log2 fold change: inactive: 0.116
[9]
  log2 fold change: inactive: 0.04
[12]
  log2 fold change: inactive: -0.093

## NA, A0A1W2PSA9
[13]
  log2 fold change: inactive: 0.108
[9]
  log2 fold change: inactive: 0.08
[11]
  log2 fold change: inactive: 0.279
[12]
  log2 fold change: inactive: 0.057

## NAP1L4 (UniProt C9J6D1)
[1]
  log2 fold change: inactive: -0.258
[3]
  log2 fold change: inactive: -0.243
[11]
  log2 fold change: inactive: 0.051

## NATD1 (UniProt Q8N6N6)
[2]
  log2 fold change: inactive: -0.141
[4]
  log2 fold change: inactive: 0.146
[5]
  log2 fold change: inactive: -0.148
volasertib
  log2 fold change: inactive: -0.344
[7]
  log2 fold change: inactive: 0.086

## NA (UniProt B2RBV5)
[1]
  log2 fold change: inactive: -0.022
[2]
  log2 fold change: inactive: -0.245
Nexturastat A
  log2 fold change: inactive: 0.292
[4]
  log2 fold change: inactive: 0.005
[5]
  log2 fold change: inactive: 0.021
barasertib
  log2 fold change: inactive: 0.002
[6]
  log2 fold change: inactive: 0.135
volasertib
  log2 fold change: inactive: 0.163
[7]
  log2 fold change: inactive: 0.049
epoxomicin
  log2 fold change: active: 0.593
[9]
  log2 fold change: inactive: 0.128
[12]
  log2 fold change: inactive: -0.08

## MYSM1 (UniProt Q5VVJ2)
[1]
  log2 fold change: inactive: 0.067
[13]
  log2 fold change: inactive: -0.298
[3]
  log2 fold change: inactive: 0.006
barasertib
  log2 fold change: inactive: -0.114
[6]
  log2 fold change: inactive: -0.17

## MYOF (UniProt Q9NZM1)
[11]
  log2 fold change: inactive: -0.183

## NCKIPSD (UniProt Q9NZQ3)
[13]
  log2 fold change: inactive: 0.006
[2]
  log2 fold change: inactive: 0.076
vemurafenib
  log2 fold change: inactive: 0.106
[4]
  log2 fold change: inactive: 0.119
givinostat
  log2 fold change: inactive: 0.288
volasertib
  log2 fold change: inactive: -0.495
[8]
  log2 fold change: inactive: -0.112
[9]
  log2 fold change: inactive: 0.006
[10]
  log2 fold change: inactive: 0.182
[12]
  log2 fold change: inactive: -0.101

## NDRG2 (UniProt G3V2A6)
givinostat
  log2 fold change: inactive: 0.11
[8]
  log2 fold change: inactive: 0.016

## NDUFV1 (UniProt E9PJL9)
[1]
  log2 fold change: inactive: 0.258
[2]
  log2 fold change: inactive: 0.051
[3]
  log2 fold change: inactive: 0.089
vemurafenib
  log2 fold change: inactive: 0.005
[4]
  log2 fold change: inactive: -0.066
[5]
  log2 fold change: inactive: -0.052
barasertib
  log2 fold change: inactive: -0.177
volasertib
  log2 fold change: inactive: -0.046
[7]
  log2 fold change: inactive: -0.001
[10]
  log2 fold change: inactive: -0.295
rosiglitazone
  log2 fold change: inactive: 0.056

## NA (UniProt J3KR12)
[13]
  log2 fold change: inactive: 0.018
[3]
  log2 fold change: inactive: 0.073
Nexturastat A
  log2 fold change: inactive: -0.283
[5]
  log2 fold change: inactive: -0.046
barasertib
  log2 fold change: inactive: 0
[7]
  log2 fold change: inactive: -0.021
epoxomicin
  log2 fold change: inactive: 0.079

## NAA40 (UniProt Q86UY6)
[13]
  log2 fold change: inactive: 0.063
[3]
  log2 fold change: inactive: -0.063
Nexturastat A
  log2 fold change: inactive: 0.157
vemurafenib
  log2 fold change: inactive: -0.037
[6]
  log2 fold change: inactive: -0.021
epoxomicin
  log2 fold change: inactive: -0.241
[9]
  log2 fold change: inactive: 0.156
[10]
  log2 fold change: inactive: 0.021
[12]
  log2 fold change: inactive: -0.02

## NANP (UniProt Q8TBE9)
[1]
  log2 fold change: inactive: 0.021
[2]
  log2 fold change: inactive: 0.005
Nexturastat A
  log2 fold change: inactive: -0.035
vemurafenib
  log2 fold change: inactive: -0.017
[4]
  log2 fold change: inactive: -0.06
[5]
  log2 fold change: inactive: -0.084
givinostat
  log2 fold change: inactive: -0.019
barasertib
  log2 fold change: inactive: 0.04
[6]
  log2 fold change: inactive: 0.12
volasertib
  log2 fold change: inactive: 0.028
[7]
  log2 fold change: inactive: -0.004
epoxomicin
  log2 fold change: inactive: -0.031
[8]
  log2 fold change: inactive: -0.046
[9]
  log2 fold change: inactive: 0.023
[10]
  log2 fold change: inactive: 0
rosiglitazone
  log2 fold change: inactive: 0.051
[11]
  log2 fold change: inactive: -0.045
[12]
  log2 fold change: inactive: 0.047

## NDUFB1 (UniProt O75438)
[1]
  log2 fold change: inactive: -0.087
[2]
  log2 fold change: inactive: -0.08
[3]
  log2 fold change: inactive: 0.067
Nexturastat A
  log2 fold change: inactive: 0.027
vemurafenib
  log2 fold change: inactive: -0.001
[4]
  log2 fold change: inactive: 0.065
[5]
  log2 fold change: inactive: 0.025
givinostat
  log2 fold change: inactive: -0.015
barasertib
  log2 fold change: inactive: -0.009
[6]
  log2 fold change: inactive: -0.004
volasertib
  log2 fold change: inactive: -0.08
[7]
  log2 fold change: inactive: -0.099
epoxomicin
  log2 fold change: active: 0.396
[9]
  log2 fold change: inactive: -0.102
[10]
  log2 fold change: inactive: 0.006
[12]
  log2 fold change: active: 0.282

## NEB isoform 3 (UniProt P20929)
[13]
  log2 fold change: inactive: -0.077
Nexturastat A
  log2 fold change: inactive: 0.245
vemurafenib
  log2 fold change: inactive: -0.11
givinostat
  log2 fold change: inactive: 0.011
barasertib
  log2 fold change: inactive: 0.124
[6]
  log2 fold change: inactive: -0.302
[7]
  log2 fold change: inactive: 0.106
epoxomicin
  log2 fold change: inactive: 0.079
[8]
  log2 fold change: inactive: 0.017
[9]
  log2 fold change: inactive: 0.047
[10]
  log2 fold change: inactive: 0.133
rosiglitazone
  log2 fold change: inactive: -0.059
[11]
  log2 fold change: inactive: -0.054
[12]
  log2 fold change: inactive: -0.055
